Results are given in words; binding and its absence hold for the method and conditions named. In cells and extracts the contact can be indirect. Some binding calls cover weakened binding; strength is not graded here. Sequences can lack the tags named with a protein.
Molecular target: T1, C-terminally tandem affinity purification (TAP)-tagged Map1 (S. cerevisiae) (UniProt Q01662)
T1 sequence: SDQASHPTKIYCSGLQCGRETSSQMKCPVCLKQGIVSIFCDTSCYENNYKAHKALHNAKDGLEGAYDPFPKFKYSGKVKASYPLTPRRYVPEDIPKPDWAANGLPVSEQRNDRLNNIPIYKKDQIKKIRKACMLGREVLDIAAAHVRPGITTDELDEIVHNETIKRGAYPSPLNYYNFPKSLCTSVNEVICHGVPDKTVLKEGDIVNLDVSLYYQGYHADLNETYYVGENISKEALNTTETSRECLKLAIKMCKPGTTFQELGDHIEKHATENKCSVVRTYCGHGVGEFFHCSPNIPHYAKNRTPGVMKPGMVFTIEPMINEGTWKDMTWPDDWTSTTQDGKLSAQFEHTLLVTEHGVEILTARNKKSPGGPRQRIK
Assay: pull-down; native pullout of Map1-TAP from the resuspended ribosomal pellet of yeast lysate on IgG-coupled Dynabeads, 20 mM HEPES pH 7.5, 100 mM KOAc, 2.5 mM Mg(OAc)2, cycloheximide; TEV elution; western blot (anti-CAB, anti-uL29)

binding: binds
B1: ribosomal protein uL29 (protein, UniProt P0CX84 1-120)
chain: MAGVKAYELRTKSKEQLASQLVDLKKELAELKVQKLSRPSLPKIKTVRKSIACVLTVINEQQREAVRQLYKGKKYQPKDLRAKKTRALRRALTKFEASQVTEKQRKKQIAFPQRKYAIKA

Reference: PMC10118133
